Some of the results follow.
These molecules were tested on T1, CTL2-GFP (C. trachomatis L2/434/Bu, GFP-expressing). Conditions: bulk GFP, single well; 28.5 h, 10 µM; inhibitor.
T1 construct: L2/434/Bu, GFP-expressing
Set-up: species or system HeLa; Intracellular C. trachomatis growth in HeLa cells, bulk GFP fluorescence relative to DMSO

SMILES	% of control remaining
Clc1ccc(-c2c[nH]c([C@@H]3COCCN3Cc3csnn3)n2)cc1 [CBK289309]	149.924%
Cc1ccc(-c2nccnc2OCCN2C(=O)c3ccccc3C2=O)c(C)c1 [CBK106981]	107.187%
N#Cc1c(NC(=O)CSc2nnc(-c3ccc(Cl)cc3)o2)oc(-c2ccccc2)c1-c1ccccc1 [CBK267655]	113.891%
COc1cc2c(cc1OC)C(CCN1CCN(c3ccccc3C)CC1)OCC(C)(C)C2 (stereo not shown) [CBK024043C]	100%
Oc1ccc(-c2n[nH]cc2-c2cnn(-c3ccccc3)c2)c(O)c1O [CBK266948]	109.653%
O=C(c1c(F)cccc1F)N1CCCC2(CCN(Cc3ccccc3)C2)C1 (stereo not shown) [CBK136886]	61.5363%
Cc1cc(C)cc(NC(=O)N2CCN(c3nccnc3NS(C)(=O)=O)CC2)c1 [CBK048877]	123.02%
O=C1CCc2cc(S(=O)(=O)Nc3ccc(OCc4ccccc4)cc3)ccc2N1 [CBK286365]	98.9413%
CCCc1[nH]nc(O)c1Cc1c(F)cccc1[N+](=O)[O-] [CBK075029]	89.9953%
CC(C)(O)C#Cc1ccc(C(=O)NCCCNC(=O)c2ccc(C#CC(C)(C)O)s2)s1 [CBK267142]	128.224%
COc1ccc(C)cc1S(=O)(=O)N1CCCC(C(=O)NCc2ccccn2)C1 (stereo not shown) [CBK268503]	156.029%
Cc1cc2oc(=O)c3c(c2cc1C)CCN(C)C3 [CBK017803]	130.785%
CC(C)c1nnc(SCc2ccc(CSc3nnc(C(C)C)n3N)cc2)n1N [CBK267911]	129.205%
CC1CC1C(=O)N(C)C1CCN(c2ncnc3ccccc23)CC1 (stereo not shown) [CBK304972]	118.552%
CC(=O)Oc1ccc(C(=O)Nc2ccc3c(c2)C(=O)N(CCC(=O)O)C3=O)cc1 [CBK265997]	86.0722%
O=c1cccc2n1CC1CC2CN(Cc2cccc(OCc3ccccc3)c2)C1 (stereo not shown) [CBK262426]	80.2256%
O=C(CCn1cnc2ccccc2c1=O)Nc1ccc(S(=O)(=O)N2CCCC2)cc1 [CBK267642]	115.796%
COc1ccc(-c2nc3cc(C(C)C)ccc3o2)cc1NC(=O)Cc1ccc(Cl)cc1 [CBK266409]	154.587%
COc1ccc(-c2cnc(N)c(N[C@@H](C)c3ccccc3)n2)c(OC)c1OC [CBK063763]	132.877%
CC(c1nc(N)nc(N(C)C)n1)N(C)CCOc1ccccc1F (stereo not shown) [CBK306053]	100.417%
O=C(CSc1nnc(SCc2cccc3ccccc23)s1)Nc1ccccc1C(F)(F)F [CBK267575]	117.226%
COc1nccc(N2CCC3(CCC(=O)N(CCO)C3)CC2)c1C#N [CBK307255]	109.935%
Cc1cc(N)n(-c2nc3c(cnn3-c3ccc(C)c(C)c3)c(=O)[nH]2)n1 [CBK287646]	147.874%
COc1ccc(CNC(=O)N(C)C2CCN(C)C2)cc1OC (stereo not shown) [CBK156020]	157.316%
CCOC(=O)CSc1nc2ccccc2nc1C(F)(F)F [CBK107200]	104.987%
O=C(c1csc(-c2ccncc2)n1)N1CCN(c2ccccc2)CC1 [CBK288590]	112.897%
Cc1oc(-c2cccc(Cl)c2)cc1C(=O)O [CBK045856]	162.404%

SMILES	% of control remaining
COCOc1ccc(-c2nc(-c3cccnc3)cnc2N)cc1 [CBK063999]	165.306%
COc1ccc(NC(=O)c2ccc(-c3nnn[nH]3)cc2)cc1Cl [CBK295139]	134.996%
CCOc1cc(OCC)cc(C(=O)N2CCC3(CC2)CC(=O)c2cc(OCC)ccc2O3)c1 [CBK168013]	119.497%
O=C(C1CCCN(CC(O)c2cccs2)C1)N1CCCCCC1 (stereo not shown) [CBK282117]	134.98%
CN(C)CCN(C)C(=O)Cc1csc(-c2cccc(Cl)c2)n1 [CBK282176]	93.0047%
Cc1nn(C)c(C)c1CN(C)S(=O)(=O)Cc1ccc(F)cc1 [CBK281590]	134.746%
O=C(O)c1ccc(-c2cnc3ccccc3n2)cc1 [CBK288010]	90.8372%
Cc1ncsc1CCN(C)C(C)C(=O)Nc1nccs1 (stereo not shown) [CBK307709]	101.51%
Cc1ccc(CC(=O)N2CC(=O)Nc3ccccc32)cc1 [CBK287670]	146.427%
Cc1cccc(C(=O)N[C@@H](C)Cn2nc3c(cc2=O)CCCC3)c1 [CBK284563]	149.574%
CC(C)(C)c1cc(CNCCS(=O)(=O)O)c(O)c(C(C)(C)C)c1 [CBK261098]	104.774%
O=C(Nc1cc(-c2nc3ncccc3o2)ccc1Cl)c1ccc2c(c1)OCCO2 [CBK264105]	117.945%
O=C(COc1ccccc1)n1nc(-c2ccco2)nc1NCc1cccs1 [CBK269145]	131.041%
CCN1C(=O)c2cccc3c(S(=O)(=O)N4CCCC4C(=O)O)ccc1c23 (stereo not shown) [CBK267169]	113.607%
CC(=O)NCCNC(=O)c1cnc(-c2ccc(Cl)cc2)c(-c2ccc(O)cc2)c1 [CBK036647]	171.391%
CCOc1cccc(CNn2cnnc2)c1OCc1ccccc1 [CBK265824]	114.337%
Cc1cc(Cl)cc(C)c1OCCN1CCNCC1 [CBK266057G]	128.962%
CN1CCC(N(C)Cc2ccccc2[N+](=O)[O-])CC1 [CBK261565]	118.792%
CC(c1ccccc1)N1Cc2cccc(C(=O)O)c2C1=O (stereo not shown) [CBK291252]	138.899%
COCCNC(=O)N(CCC#N)C1CCCCC1 [CBK156358]	116.295%
Cc1nnc(SCc2nnc(-c3ccccc3)o2)n1Cc1ccccc1 [CBK269743]	121.559%
O=C1CCc2cc(S(=O)(=O)Nc3ccccc3Cc3ccccc3)ccc2N1 [CBK286369]	83.4633%
Cc1ccc(C(C)C(=O)N2CCC(O)(c3ccccn3)CC2)cc1 (stereo not shown) [CBK283787]	127.5%
COC1CCCN(Cc2cncn2C2CCCCC2)C1 (stereo not shown) [CBK306542]	121.162%
O=c1cc(CN2CCOCC2)oc2c(OCc3nnnn3C3CC3)cccc12 [CBK007813]	100.682%
Cc1nc2c(C(=O)NCCCN3CCCC3=O)cnn2c(C)c1Cc1cccnc1 [CBK162151]	109.543%
O=S(=O)(Cc1ccc(Cl)cc1Cl)N1CCOCC1 [CBK058967]	100.701%

SMILES	% of control remaining
CN1CCN(c2cc(C(F)(F)F)c3scc(C(=O)NCCC4=CCCCC4)c3n2)CC1 [CBK028474]	106.98%
Nc1nnc(Sc2nc3cc(Cl)c(Cl)cc3nc2N2CCCC2)s1 [CBK115267]	84.3003%
O=C(NC(c1ccc(F)cc1)c1cnccn1)C1CCN(S(=O)(=O)c2cccc(Cl)c2)CC1 (stereo not shown) [CBK060013]	170.558%
O=C(Nc1ccc(Cl)cc1)c1ccc(N2CCN(Cc3ccccc3)CC2)c([N+](=O)[O-])c1 [CBK264422]	100%
OC1(Cn2ccc3ncccc32)CCN(Cc2cccs2)CC1 [CBK284783]	127.151%
O=C(O)/C=C/c1ccccc1OCC(=O)NC1CCCCC1 [CBK286900]	99.8523%
COc1cccc(Cn2c(=O)n(C)c3ncccc32)c1 [CBK282391]	147.195%
Cc1oc(C(=O)N2CCc3sccc3C2c2ccccc2)cc1CN1CCOCC1 (stereo not shown) [CBK285566]	114.973%
COc1ccc(CCC(C)NC2CCCc3c2[nH]c2ccc([N+](=O)[O-])cc32)cc1 (stereo not shown) [CBK262876]	38.8322%
O=C(NC(C(=O)N/N=C/c1coc2ccccc2c1=O)c1n[nH]c(=O)c2ccccc12)c1ccccc1 (stereo not shown) [CBK262847]	99.0221%
Oc1cccc(OCCOc2nccc(C(F)(F)F)n2)c1 [CBK115903]	109.637%
O=C(O)C1CSC(c2ccc(-c3cccc(Cl)c3)o2)N1 (stereo not shown) [CBK286997]	113.139%
CCCc1nn(CC(=O)N2CCCC2)c(=O)c2cc3ccsc3n12 [CBK284145]	122.973%
Cc1nc2ccccc2c(=O)n1Cc1cccnc1 [CBK288092]	142.652%
O=C(CCC1CCCCC1)Nc1c[nH]c(=O)[nH]c1=O [CBK287867]	94.9363%
NC(=S)N1N=C(c2ccccc2)CC1c1ccccc1 (stereo not shown) [CBK288435]	93.3502%
CCCN1CCN(C(=O)c2ccc(=O)n(C)c2)C(Cc2ccccc2-c2ccccc2)C1=O (stereo not shown) [CBK285836]	97.1314%
O=C(O)C1Cc2nc[nH]c2C(c2ccc(F)cc2)N1 (stereo not shown) [CBK286970]	119.738%
COc1ccc(C(=O)Cn2nc3nnc(-c4ccccc4)c(-c4ccccc4)n3c2=O)cc1 [CBK286181]	138.44%
CC(=O)Nc1cccc(NC(=O)N2CCN(C3CCN(C)CC3)CC2)c1 [CBK155901]	90.578%
COC(=O)c1sc(NC(=O)c2cccnc2)c(C#N)c1C [CBK265007]	113.241%
Cc1cc(C)c(NC(=O)C2CCCCN2C23CC4CC(CC(C4)C2)C3)c(C)c1 (stereo not shown) [CBK261559C]	101.985%
O=C(Nc1ccc(Cl)cc1)C(Cc1ccccc1)N1C(=O)c2cc(Cl)c(Cl)cc2C1=O (stereo not shown) [CBK264172]	120.258%
O=C(Nc1ccc2c(c1)OCCO2)c1cnccn1 [CBK220830]	100.707%
CCCNC(=O)CN(C)CC(=O)Nc1sc2c(c1C#N)CCC(C)C2 (stereo not shown) [CBK305845]	103.476%

Copied from the list:
Under % of control remaining, O=C(CSc1nnc(SCc2cccc3ccccc23)s1)Nc1ccccc1C(F)(F)F [CBK267575] has the entry 117.226%
Under % of control remaining, CCOc1cccc(CNn2cnnc2)c1OCc1ccccc1 [CBK265824] has the entry 114.337%
Under % of control remaining, COc1ccc(C)cc1S(=O)(=O)N1CCCC(C(=O)NCc2ccccn2)C1 (stereo not shown) [CBK268503] has the entry 156.029%
Under % of control remaining, COc1ccc(-c2nc3cc(C(C)C)ccc3o2)cc1NC(=O)Cc1ccc(Cl)cc1 [CBK266409] has the entry 154.587%

Reference: publication PMC12040169 (PLOS Biology, 2025)
